Reference: PubChem BioAssay AID2685 (National Center for Advancing Translational Sciences (NCATS), 2010)
The list shows a part of the results. These are further read-outs of the screen, such as a control signal, another cell line or another target. No call is given for them. Most of these compounds were active or inconclusive in the main read-out, so they are no random draw. The note in brackets gives the kind of curve behind each potency; many fits are weak.

Test: qHTS Assay for Lipid Storage Modulators in Drosophila S3 Cells;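 on cell number change: cells counted by Cell Tracker Red CMTPX staining in the red channel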
Details: BODIPY lipid droplet fluorescence, 18-24 h; for cell number change: measured here: cell count max response, cells fed with added oleic acid
How it was run: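 Laser-scanning cytometry quantifies lipid droplet accumulation (500–530 nm total intensity; droplet/cell object ratio) in oleic acid-fed (400 uM added) Drosophila S3 cells treated with a concentration series. 20 uM Triacsin C defined 100% inhibition.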

[1] = measured here: cell number channel AC50, cells fed with added oleic acid
[2] = measured here: lipid fluorescence (Fed channel) AC50, cells fed with added oleic acid

| Compound | cell number change [%] | AC50 [1] | AC50 [2] |
| --- | --- | --- | --- |
| O=S(=O)(NC1CCN(Cc2ccccc2)CC1)c1cccc2cccnc12 | 138 | 7.31 µM [falling, partial curve, poor fit] | – |
| COc1ccccc1C(=O)Nc1ccc(S(=O)(=O)N2CCCCC2)cc1 | 18.4 | – | – |
| CN(C)CCNC(=O)C1CCCNC1=O (stereo not drawn) | -17.9 | – | – |
| CC(C)NS(=O)(=O)c1ccc(CCC(=O)N2CCCCC2)cc1 | -38.8 | 32.6 µM [falling, single point] | – |
| Cc1ccccc1Cn1nc(C)c(NC(=O)/C=C/c2cnn(C)c2C)c1C | 38.1 | 7.31 µM [rising, partial curve] | 0.517 µM [rising, full curve, poor fit] |
| O=C(NCC(c1ccco1)N1CCc2ccccc2C1)c1ccc(Br)cc1 (stereo not drawn) | 34.5 | 29.1 µM [rising, single point] | 29.1 µM [rising, single point] |
| Cc1nc(SCCC(=O)O)c2cc(-c3ccccc3)sc2n1 | -2.56 | – | 29.1 µM [rising, single point] |
| O=C1c2cccc3c(N4CCCCC4)ccc(c23)C(=O)N1c1ccccc1O | -96.6 | 18.4 µM [falling, partial curve] | – |
| Cc1nn(-c2ccccc2)c(C)c1/C=N/Nc1nc2ccccc2[nH]1 | -65.1 | 32.6 µM [falling, single point] | 29.1 µM [falling, partial curve, poor fit] |
| O=S(=O)(Nc1nc2ccccc2nc1NCc1ccco1)c1ccc(Cl)cc1 | – | – | 5.8 µM [rising, single point] |
| CCCN(CCC)S(=O)(=O)c1ccc(Cl)c([N+](=O)[O-])c1 | -24.3 | – | 5.17 µM [falling, single point] |
| CCCCC(NC(=O)Cc1c(C)c2cc3c(-c4ccccc4)coc3c(C)c2oc1=O)C(=O)O (stereo not drawn) | -23.4 | – | 2.06 µM [rising, partial curve] |
| COC(=O)c1c(NC(=O)C(Cl)Cl)sc2c1C(C(=O)OC)CC2 (stereo not drawn) | -17 | – | 29.1 µM [falling, single point] |
| CCOc1ccc(-c2c(C(=O)N/N=C/c3ccccc3)nnn2-c2nonc2N)cc1 | 18.4 | 0.00517 µM [rising, full curve, poor fit] | 0.00461 µM [rising, full curve, poor fit] |
| CC(=O)N1CCOc2ccc(S(=O)(=O)N3CCC(C(=O)Nc4ccc(C)cc4)CC3)cc21 | -25.5 | – | – |
| COCCCNC(=S)Nc1ccc(C)cc1[N+](=O)[O-] | 15.9 | – | – |
| Cc1ccc2nc(-c3cccnc3)cc(C(=O)Nc3ccccc3[N+](=O)[O-])c2c1 | -46.8 | 7.08 µM [falling, partial curve] | – |

Single values from the results shown.
Under cell number change [%], Cc1nc(SCCC(=O)O)c2cc(-c3ccccc3)sc2n1 is entered as -2.56
Under AC50 [1], CC(C)NS(=O)(=O)c1ccc(CCC(=O)N2CCCCC2)cc1 is entered as 32.6 µM [falling, single point]
